± gives the standard deviation of the averaged measurements. Values are relative to the signal before dosing, not to a vehicle control; the signal also falls without drug.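 Fibroblast labels name human fibroblasts: mostly primary ones from tissues such as uterus (C12385, HUF), lung (H6013), bone (Hs27A), adrenal (HADF) and skin (WS1), plus mammary HMF and breast cancer-associated Hs343T. The cancer cells are basal-like or mesenchymal-like triple-negative breast cancer lines. The paper calls a changed response a hit when it shifts by more than 3x the replicate standard deviation. The tissue of the other fibroblasts is not given here.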
Tested on: MDAMB436
Assay: relative JC-1 red fluorescence (viability) vs pre-drug, coculture with fibroblast (fraction); higher = more viable cancer cells
Conditions: 10 µM
Procedure: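 JC-1 labelled TNBC cells cocultured 1:1 (1,500 cells each) with CellTrace Violet stained primary or stromal fibroblasts in 384-well plates in FluoroBrite medium, treated with one of 42 anticancer drugs at 0.1, 1, 10 or 100 uM. JC-1 red fluorescence (mitochondrial integrity in cancer cells only) was read by plate reader every 8 h for 72 h. Values are normalised to each well's pre-drug value. The stock of one drug was tenfold lower, so its dose labels may be too high.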

COc1cc([C@@H]2c3cc4c(cc3[C@@H](O[C@@H]3O[C@@H]5CO[C@@H](C)O[C@H]5[C@H](O)[C@H]3O)[C@H]3COC(=O)[C@H]23)OCO4)cc(OC)c1O [Etoposide]
relative JC-1 red fluorescence (8 h, coculture fibroblast: C12385): 0.789 ± 0.01
relative JC-1 red fluorescence (8 h, coculture fibroblast: H6013): 0.858 ± 0.03
relative JC-1 red fluorescence (8 h, coculture fibroblast: H6019): 0.773 ± 0.023
relative JC-1 red fluorescence (8 h, coculture fibroblast: H6076): 0.663 ± 0.054
relative JC-1 red fluorescence (8 h, coculture fibroblast: H6231): 0.648 ± 0.05
relative JC-1 red fluorescence (8 h, coculture fibroblast: HADF): 0.807 ± 0.011
relative JC-1 red fluorescence (8 h, coculture fibroblast: HCFa): 0.814 ± 0.066
relative JC-1 red fluorescence (8 h, coculture fibroblast: HCPF): 0.661 ± 0.03
relative JC-1 red fluorescence (8 h, coculture fibroblast: HHSteC): 0.8218 ± 0.0066
relative JC-1 red fluorescence (8 h, coculture fibroblast: HMF): 0.624 ± 0.037
relative JC-1 red fluorescence (8 h, coculture fibroblast: HPFa): 0.8573 ± 0.0018
relative JC-1 red fluorescence (8 h, coculture fibroblast: HUF): 0.8153 ± 0.0036
relative JC-1 red fluorescence (8 h, coculture fibroblast: Hs5): 0.68 ± 0.031
relative JC-1 red fluorescence (8 h, coculture fibroblast: Hs27A): 0.8074 ± 0.005
relative JC-1 red fluorescence (8 h, coculture fibroblast: Hs343T): 0.689 ± 0.038
relative JC-1 red fluorescence (8 h, coculture fibroblast: WS1): 0.773 ± 0.035
relative JC-1 red fluorescence (16 h, coculture fibroblast: C12385): 0.7416 ± 0.0048
relative JC-1 red fluorescence (16 h, coculture fibroblast: H6013): 0.8169 ± 0.0046
relative JC-1 red fluorescence (16 h, coculture fibroblast: H6019): 0.712 ± 0.041
relative JC-1 red fluorescence (16 h, coculture fibroblast: H6076): 0.601 ± 0.026
relative JC-1 red fluorescence (16 h, coculture fibroblast: H6231): 0.564 ± 0.033
relative JC-1 red fluorescence (16 h, coculture fibroblast: HADF): 0.755 ± 0.029
relative JC-1 red fluorescence (16 h, coculture fibroblast: HCFa): 0.805 ± 0.071
relative JC-1 red fluorescence (16 h, coculture fibroblast: HCPF): 0.611 ± 0.019
relative JC-1 red fluorescence (16 h, coculture fibroblast: HHSteC): 0.805 ± 0.018
relative JC-1 red fluorescence (16 h, coculture fibroblast: HMF): 0.565 ± 0.033
relative JC-1 red fluorescence (16 h, coculture fibroblast: HPFa): 0.821 ± 0.022
relative JC-1 red fluorescence (16 h, coculture fibroblast: HUF): 0.7514 ± 0.001
relative JC-1 red fluorescence (16 h, coculture fibroblast: Hs5): 0.655 ± 0.038
relative JC-1 red fluorescence (16 h, coculture fibroblast: Hs27A): 0.761 ± 0.029
relative JC-1 red fluorescence (16 h, coculture fibroblast: Hs343T): 0.649 ± 0.027
relative JC-1 red fluorescence (16 h, coculture fibroblast: WS1): 0.709 ± 0.046
relative JC-1 red fluorescence (24 h, coculture fibroblast: C12385): 0.7436 ± 0.005
relative JC-1 red fluorescence (24 h, coculture fibroblast: H6013): 0.817 ± 0.011
relative JC-1 red fluorescence (24 h, coculture fibroblast: H6019): 0.674 ± 0.064
relative JC-1 red fluorescence (24 h, coculture fibroblast: H6076): 0.596 ± 0.013
relative JC-1 red fluorescence (24 h, coculture fibroblast: H6231): 0.59 ± 0.053
relative JC-1 red fluorescence (24 h, coculture fibroblast: HADF): 0.747 ± 0.042
relative JC-1 red fluorescence (24 h, coculture fibroblast: HCFa): 0.807 ± 0.089
relative JC-1 red fluorescence (24 h, coculture fibroblast: HCPF): 0.636 ± 0.047
relative JC-1 red fluorescence (24 h, coculture fibroblast: HHSteC): 0.792 ± 0.014
relative JC-1 red fluorescence (24 h, coculture fibroblast: HMF): 0.554 ± 0.034
relative JC-1 red fluorescence (24 h, coculture fibroblast: HPFa): 0.811 ± 0.03
relative JC-1 red fluorescence (24 h, coculture fibroblast: HUF): 0.7319 ± 0.0062
relative JC-1 red fluorescence (24 h, coculture fibroblast: Hs5): 0.661 ± 0.039
relative JC-1 red fluorescence (24 h, coculture fibroblast: Hs27A): 0.753 ± 0.054
relative JC-1 red fluorescence (24 h, coculture fibroblast: Hs343T): 0.63097 ± 0.00043
relative JC-1 red fluorescence (24 h, coculture fibroblast: WS1): 0.689 ± 0.06
relative JC-1 red fluorescence (32 h, coculture fibroblast: C12385): 0.67 ± 0.0093
relative JC-1 red fluorescence (32 h, coculture fibroblast: H6013): 0.8143 ± 0.0013
relative JC-1 red fluorescence (32 h, coculture fibroblast: H6019): 0.609 ± 0.072
relative JC-1 red fluorescence (32 h, coculture fibroblast: H6076): 0.555 ± 0.05
relative JC-1 red fluorescence (32 h, coculture fibroblast: H6231): 0.507 ± 0.06
relative JC-1 red fluorescence (32 h, coculture fibroblast: HADF): 0.725 ± 0.045
relative JC-1 red fluorescence (32 h, coculture fibroblast: HCFa): 0.801 ± 0.096
relative JC-1 red fluorescence (32 h, coculture fibroblast: HCPF): 0.588 ± 0.061
relative JC-1 red fluorescence (32 h, coculture fibroblast: HHSteC): 0.767 ± 0.011
relative JC-1 red fluorescence (32 h, coculture fibroblast: HMF): 0.508 ± 0.024
relative JC-1 red fluorescence (32 h, coculture fibroblast: HPFa): 0.782 ± 0.033
relative JC-1 red fluorescence (32 h, coculture fibroblast: HUF): 0.664 ± 0.011
relative JC-1 red fluorescence (32 h, coculture fibroblast: Hs5): 0.614 ± 0.054
relative JC-1 red fluorescence (32 h, coculture fibroblast: Hs27A): 0.743 ± 0.073
relative JC-1 red fluorescence (32 h, coculture fibroblast: Hs343T): 0.587 ± 0.016
relative JC-1 red fluorescence (32 h, coculture fibroblast: WS1): 0.607 ± 0.062
relative JC-1 red fluorescence (40 h, coculture fibroblast: C12385): 0.636 ± 0.0095
relative JC-1 red fluorescence (40 h, coculture fibroblast: H6013): 0.817 ± 0.013
relative JC-1 red fluorescence (40 h, coculture fibroblast: H6019): 0.575 ± 0.072
relative JC-1 red fluorescence (40 h, coculture fibroblast: H6076): 0.56 ± 0.095
relative JC-1 red fluorescence (40 h, coculture fibroblast: H6231): 0.498 ± 0.066
relative JC-1 red fluorescence (40 h, coculture fibroblast: HADF): 0.712 ± 0.057
relative JC-1 red fluorescence (40 h, coculture fibroblast: HCFa): 0.805 ± 0.11
relative JC-1 red fluorescence (40 h, coculture fibroblast: HCPF): 0.593 ± 0.087
relative JC-1 red fluorescence (40 h, coculture fibroblast: HHSteC): 0.771 ± 0.018
relative JC-1 red fluorescence (40 h, coculture fibroblast: HMF): 0.515 ± 0.016
relative JC-1 red fluorescence (40 h, coculture fibroblast: HPFa): 0.794 ± 0.043
relative JC-1 red fluorescence (40 h, coculture fibroblast: HUF): 0.608 ± 0.013
relative JC-1 red fluorescence (40 h, coculture fibroblast: Hs5): 0.61 ± 0.065
relative JC-1 red fluorescence (40 h, coculture fibroblast: Hs27A): 0.741 ± 0.091
relative JC-1 red fluorescence (40 h, coculture fibroblast: Hs343T): 0.584 ± 0.049
relative JC-1 red fluorescence (40 h, coculture fibroblast: WS1): 0.571 ± 0.068
relative JC-1 red fluorescence (48 h, coculture fibroblast: C12385): 0.619 ± 0.0091
relative JC-1 red fluorescence (48 h, coculture fibroblast: H6013): 0.844 ± 0.033
relative JC-1 red fluorescence (48 h, coculture fibroblast: H6019): 0.56 ± 0.079
relative JC-1 red fluorescence (48 h, coculture fibroblast: H6076): 0.535 ± 0.11
relative JC-1 red fluorescence (48 h, coculture fibroblast: H6231): 0.476 ± 0.068
relative JC-1 red fluorescence (48 h, coculture fibroblast: HADF): 0.751 ± 0.069
relative JC-1 red fluorescence (48 h, coculture fibroblast: HCFa): 0.844 ± 0.11
relative JC-1 red fluorescence (48 h, coculture fibroblast: HCPF): 0.574 ± 0.11
relative JC-1 red fluorescence (48 h, coculture fibroblast: HHSteC): 0.794 ± 0.024
relative JC-1 red fluorescence (48 h, coculture fibroblast: HMF): 0.487 ± 0.011
relative JC-1 red fluorescence (48 h, coculture fibroblast: HPFa): 0.822 ± 0.051
relative JC-1 red fluorescence (48 h, coculture fibroblast: HUF): 0.589 ± 0.011
relative JC-1 red fluorescence (48 h, coculture fibroblast: Hs5): 0.578 ± 0.073
relative JC-1 red fluorescence (48 h, coculture fibroblast: Hs27A): 0.827 ± 0.11
relative JC-1 red fluorescence (48 h, coculture fibroblast: Hs343T): 0.551 ± 0.056
relative JC-1 red fluorescence (48 h, coculture fibroblast: WS1): 0.55 ± 0.083
relative JC-1 red fluorescence (56 h, coculture fibroblast: C12385): 0.61 ± 0.021
relative JC-1 red fluorescence (56 h, coculture fibroblast: H6013): 0.798 ± 0.037
relative JC-1 red fluorescence (56 h, coculture fibroblast: H6019): 0.526 ± 0.087
relative JC-1 red fluorescence (56 h, coculture fibroblast: H6076): 0.556 ± 0.14
relative JC-1 red fluorescence (56 h, coculture fibroblast: H6231): 0.484 ± 0.07
relative JC-1 red fluorescence (56 h, coculture fibroblast: HADF): 0.683 ± 0.078
relative JC-1 red fluorescence (56 h, coculture fibroblast: HCFa): 0.783 ± 0.14
relative JC-1 red fluorescence (56 h, coculture fibroblast: HCPF): 0.578 ± 0.13
relative JC-1 red fluorescence (56 h, coculture fibroblast: HHSteC): 0.74 ± 0.029
relative JC-1 red fluorescence (56 h, coculture fibroblast: HMF): 0.506 ± 0.0019
relative JC-1 red fluorescence (56 h, coculture fibroblast: HPFa): 0.757 ± 0.054
relative JC-1 red fluorescence (56 h, coculture fibroblast: HUF): 0.5714 ± 0.0046
relative JC-1 red fluorescence (56 h, coculture fibroblast: Hs5): 0.603 ± 0.075
relative JC-1 red fluorescence (56 h, coculture fibroblast: Hs27A): 0.75 ± 0.12
relative JC-1 red fluorescence (56 h, coculture fibroblast: Hs343T): 0.545 ± 0.071
relative JC-1 red fluorescence (56 h, coculture fibroblast: WS1): 0.536 ± 0.086
relative JC-1 red fluorescence (64 h, coculture fibroblast: C12385): 0.6 ± 0.017
relative JC-1 red fluorescence (64 h, coculture fibroblast: H6013): 0.786 ± 0.053
relative JC-1 red fluorescence (64 h, coculture fibroblast: H6019): 0.499 ± 0.089
relative JC-1 red fluorescence (64 h, coculture fibroblast: H6076): 0.556 ± 0.15
relative JC-1 red fluorescence (64 h, coculture fibroblast: H6231): 0.464 ± 0.076
relative JC-1 red fluorescence (64 h, coculture fibroblast: HADF): 0.685 ± 0.077
relative JC-1 red fluorescence (64 h, coculture fibroblast: HCFa): 0.788 ± 0.15
relative JC-1 red fluorescence (64 h, coculture fibroblast: HCPF): 0.572 ± 0.13
relative JC-1 red fluorescence (64 h, coculture fibroblast: HHSteC): 0.732 ± 0.041
relative JC-1 red fluorescence (64 h, coculture fibroblast: HMF): 0.493 ± 0.0079
relative JC-1 red fluorescence (64 h, coculture fibroblast: HPFa): 0.746 ± 0.065
relative JC-1 red fluorescence (64 h, coculture fibroblast: HUF): 0.5624 ± 0.0012
relative JC-1 red fluorescence (64 h, coculture fibroblast: Hs5): 0.578 ± 0.07
relative JC-1 red fluorescence (64 h, coculture fibroblast: Hs27A): 0.763 ± 0.13
relative JC-1 red fluorescence (64 h, coculture fibroblast: Hs343T): 0.54 ± 0.089
relative JC-1 red fluorescence (64 h, coculture fibroblast: WS1): 0.518 ± 0.097
relative JC-1 red fluorescence (72 h, coculture fibroblast: C12385): 0.598 ± 0.032
relative JC-1 red fluorescence (72 h, coculture fibroblast: H6013): 0.741 ± 0.056
relative JC-1 red fluorescence (72 h, coculture fibroblast: H6019): 0.486 ± 0.097
relative JC-1 red fluorescence (72 h, coculture fibroblast: H6076): 0.551 ± 0.16
relative JC-1 red fluorescence (72 h, coculture fibroblast: H6231): 0.456 ± 0.088
relative JC-1 red fluorescence (72 h, coculture fibroblast: HADF): 0.644 ± 0.078
relative JC-1 red fluorescence (72 h, coculture fibroblast: HCFa): 0.741 ± 0.15
relative JC-1 red fluorescence (72 h, coculture fibroblast: HCPF): 0.569 ± 0.14
relative JC-1 red fluorescence (72 h, coculture fibroblast: HHSteC): 0.685 ± 0.037
relative JC-1 red fluorescence (72 h, coculture fibroblast: HMF): 0.497 ± 0.019
relative JC-1 red fluorescence (72 h, coculture fibroblast: HPFa): 0.69 ± 0.062
relative JC-1 red fluorescence (72 h, coculture fibroblast: HUF): 0.559 ± 0.0092
relative JC-1 red fluorescence (72 h, coculture fibroblast: Hs5): 0.585 ± 0.087
relative JC-1 red fluorescence (72 h, coculture fibroblast: Hs27A): 0.702 ± 0.14
relative JC-1 red fluorescence (72 h, coculture fibroblast: Hs343T): 0.542 ± 0.11
relative JC-1 red fluorescence (72 h, coculture fibroblast: WS1): 0.511 ± 0.1

Source: the supplement of paper PMC6078165
